From paper PMC2077835 (Drug metabolism and disposition: the biological fate of …, 2006)

Columns and labels:
Format in all cases: biochemical
[1] = target: T1, CYP2J2 (Homo sapiens, UniProt P51589); assay: Chemical inhibition of M1 formation by recombinant CYP2J2; details: 1 μM inhibitor; 10 pmol/ml P450, 3 μM DB289
T1 sequence (P51589 1-502): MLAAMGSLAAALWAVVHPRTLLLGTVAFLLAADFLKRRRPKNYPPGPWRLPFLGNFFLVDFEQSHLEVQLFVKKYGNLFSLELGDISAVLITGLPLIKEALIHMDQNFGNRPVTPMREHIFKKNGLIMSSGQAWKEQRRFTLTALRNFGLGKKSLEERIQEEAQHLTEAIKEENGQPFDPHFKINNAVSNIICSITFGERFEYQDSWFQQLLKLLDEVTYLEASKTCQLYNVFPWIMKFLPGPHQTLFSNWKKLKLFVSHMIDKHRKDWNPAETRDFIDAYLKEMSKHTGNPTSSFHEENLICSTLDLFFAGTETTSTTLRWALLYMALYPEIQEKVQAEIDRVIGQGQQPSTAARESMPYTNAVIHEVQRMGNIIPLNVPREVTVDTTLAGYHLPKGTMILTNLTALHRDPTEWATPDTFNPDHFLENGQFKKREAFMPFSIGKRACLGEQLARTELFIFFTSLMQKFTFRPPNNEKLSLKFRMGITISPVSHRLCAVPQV

[2] = target: T2, recombinant CYP4F2 (Homo sapiens, UniProt P78329); assay: Chemical inhibition of M1 formation by recombinant CYP4F2; details: inhibitor >1 μM; 10 pmol/ml P450, 3 μM DB289
T2 sequence (P78329 5-520): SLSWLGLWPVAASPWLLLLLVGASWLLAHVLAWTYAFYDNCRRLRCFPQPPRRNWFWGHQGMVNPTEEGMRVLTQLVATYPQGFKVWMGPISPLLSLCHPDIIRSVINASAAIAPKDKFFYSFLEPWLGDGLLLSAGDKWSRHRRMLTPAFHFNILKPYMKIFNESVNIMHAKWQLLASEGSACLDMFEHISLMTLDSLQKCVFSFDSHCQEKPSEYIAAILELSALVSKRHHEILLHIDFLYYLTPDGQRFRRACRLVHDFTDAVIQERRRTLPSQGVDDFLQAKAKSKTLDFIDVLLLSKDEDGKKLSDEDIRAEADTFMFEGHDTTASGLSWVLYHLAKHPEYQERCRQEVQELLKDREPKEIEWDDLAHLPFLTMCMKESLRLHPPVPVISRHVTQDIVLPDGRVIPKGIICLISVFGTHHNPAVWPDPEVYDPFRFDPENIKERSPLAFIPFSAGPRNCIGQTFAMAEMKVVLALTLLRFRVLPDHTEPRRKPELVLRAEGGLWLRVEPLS

[3] = system: M1 formation by human liver microsomes; assay: Chemical inhibition of M1 formation by HLMs; details: 0.2 mg/ml HLM, 3 μM DB289
[4] = target: T3, recombinant CYP4F3B (Homo sapiens, UniProt Q08477); assay: Chemical inhibition of M1 formation by recombinant CYP4F3B; details: inhibitor >1 μM; 10 pmol/ml P450, 3 μM DB289
T3 sequence (Q08477 1-520 isoform Q08477-2): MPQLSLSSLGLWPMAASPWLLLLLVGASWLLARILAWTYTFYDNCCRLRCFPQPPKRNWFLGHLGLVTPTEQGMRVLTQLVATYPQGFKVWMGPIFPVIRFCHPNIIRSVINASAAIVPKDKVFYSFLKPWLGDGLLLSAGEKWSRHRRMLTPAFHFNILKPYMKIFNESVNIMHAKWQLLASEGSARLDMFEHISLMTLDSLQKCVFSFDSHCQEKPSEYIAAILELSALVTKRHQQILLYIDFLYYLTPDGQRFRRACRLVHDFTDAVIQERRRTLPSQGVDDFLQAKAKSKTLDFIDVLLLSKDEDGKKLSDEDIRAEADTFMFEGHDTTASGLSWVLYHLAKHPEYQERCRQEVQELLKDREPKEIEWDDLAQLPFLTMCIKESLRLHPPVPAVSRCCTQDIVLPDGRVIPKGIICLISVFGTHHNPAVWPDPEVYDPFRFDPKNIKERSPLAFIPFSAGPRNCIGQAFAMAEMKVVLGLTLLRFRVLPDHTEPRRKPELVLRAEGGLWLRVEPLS

inhibition of M1 formation, selectivity among CYP2J2, CYP4F2, CYP4F3B [1]: selective inhibitor of CYP2J2
inhibition of M1 formation [2]: partially inhibiting
inhibition of M1 formation [4]: partially inhibiting
Structure (SMILES): CC(C)(C)c1ccc(C(=O)CCCN2CCC(OC(c3ccccc3)c3ccccc3)CC2)cc1 [ebastine]
inhibition of M1 formation ([3]; 1 μM inhibitor, Fig. 7A): did not inhibit
inhibition of M1 formation ([3]; inhibitor up to 10 μM): marginally inhibited
